Test results published in publication PMC12631847.
These are yes or no findings as the source states them, for the method shown. In cells and extracts the contact can be indirect. Some entries that bind do so weakly or less than the wild type. Where a sequence is shown, tags or fusion partners need not be part of it.

By UniProt entry, the sequences of proteins in these tests, tags left out.
UniProt Q9H0U4: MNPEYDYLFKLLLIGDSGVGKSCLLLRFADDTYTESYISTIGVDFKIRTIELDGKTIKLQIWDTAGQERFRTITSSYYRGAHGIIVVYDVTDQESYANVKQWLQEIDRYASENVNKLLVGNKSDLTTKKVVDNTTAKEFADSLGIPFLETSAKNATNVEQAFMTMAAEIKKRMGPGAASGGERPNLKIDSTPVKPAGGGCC

Biological target: GST-RAB1B (human) (UniProt Q9H0U4)
Test: pull-down; GST-RAB1B (10 µg) on magnetic GSH beads loaded with 1 mM GTP-γ-S; 500 µg BT549 lysate, 1 h 4 °C; anti-HA immunoblot; only the target purified

- binding: binds
B1: HA-TBC1D22B (protein, UniProt Q9NU19 1-505)
chain: MAAENSKQFWKRSAKLPGSIQPVYGAQHPPLDPRLTKNFIKERSKVNTVPLKNKKASSFHEFARNTSDAWDIGDDEEEDFSSPSFQTLNSKVALATAAQVLENHSKLRVKPERSQSTTSDVPANYKVIKSSSDAQLSRNSSDTCLRNPLHKQQSLPLRPIIPLVARISDQNASGAPPMTVREKTRLEKFRQLLSSQNTDLDELRKCSWPGVPREVRPITWRLLSGYLPANTERRKLTLQRKREEYFGFIEQYYDSRNEEHHQDTYRQIHIDIPRTNPLIPLFQQPLVQEIFERILFIWAIRHPASGYVQGINDLVTPFFVVFLSEYVEEDVENFDVTNLSQDMLRSIEADSFWCMSKLLDGIQDNYTFAQPGIQKKVKALEELVSRIDEQVHNHFRRYEVEYLQFAFRWMNNLLMRELPLRCTIRLWDTYQSEPEGFSHFHLYVCAAFLIKWRKEILDEEDFQGLLMLLQNLPTIHWGNEEIGLLLAEAYRLKYMFADAPNHYRR
